According to PMC4039532:
No constants are given. Whether binding was seen depends on the method and setting. Binding seen in cells or lysates may run through a third protein. Some entries that bind do so weakly or less than the wild type. Values belong to the substance of their own block, whether it stands above or below them.

Sequences of proteins named here, by UniProt entry; tags and fusion partners are left off.
UniProt P31652: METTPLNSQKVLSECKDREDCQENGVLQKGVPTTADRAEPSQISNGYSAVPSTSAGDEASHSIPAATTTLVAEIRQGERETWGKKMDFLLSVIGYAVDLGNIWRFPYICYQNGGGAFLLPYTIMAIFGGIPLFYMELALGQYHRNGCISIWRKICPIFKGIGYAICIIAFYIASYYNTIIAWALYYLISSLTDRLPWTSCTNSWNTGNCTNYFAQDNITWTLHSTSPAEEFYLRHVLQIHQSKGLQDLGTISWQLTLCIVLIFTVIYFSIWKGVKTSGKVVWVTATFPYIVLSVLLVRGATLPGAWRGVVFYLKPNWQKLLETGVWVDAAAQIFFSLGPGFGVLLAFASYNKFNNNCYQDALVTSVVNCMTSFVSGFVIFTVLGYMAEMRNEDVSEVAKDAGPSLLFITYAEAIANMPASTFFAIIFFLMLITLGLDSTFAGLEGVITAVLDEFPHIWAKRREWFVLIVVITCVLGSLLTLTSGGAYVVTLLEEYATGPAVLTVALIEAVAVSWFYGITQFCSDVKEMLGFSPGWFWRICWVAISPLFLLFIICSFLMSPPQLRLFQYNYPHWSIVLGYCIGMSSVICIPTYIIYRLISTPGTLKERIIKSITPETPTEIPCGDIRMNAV
UniProt P60881: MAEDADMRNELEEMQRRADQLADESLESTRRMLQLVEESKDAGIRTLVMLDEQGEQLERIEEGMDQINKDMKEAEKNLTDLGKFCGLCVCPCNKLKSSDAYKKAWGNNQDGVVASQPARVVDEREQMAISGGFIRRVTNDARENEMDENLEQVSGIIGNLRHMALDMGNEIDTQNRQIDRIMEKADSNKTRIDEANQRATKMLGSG
UniProt P63045: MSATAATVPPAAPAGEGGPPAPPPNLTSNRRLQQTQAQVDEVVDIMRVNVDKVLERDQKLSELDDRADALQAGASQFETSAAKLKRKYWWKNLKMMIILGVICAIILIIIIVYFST
UniProt P63025: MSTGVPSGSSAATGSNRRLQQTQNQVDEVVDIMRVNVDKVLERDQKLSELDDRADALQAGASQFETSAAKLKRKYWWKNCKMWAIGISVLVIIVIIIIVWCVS
UniProt Q63666: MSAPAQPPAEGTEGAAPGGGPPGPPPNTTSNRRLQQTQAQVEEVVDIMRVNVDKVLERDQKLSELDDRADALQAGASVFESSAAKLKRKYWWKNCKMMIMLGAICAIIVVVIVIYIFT

Experiments:
[1] = target: serotonin transporter (SERT), rat, in pcDNA3 (rat) (UniProt P31652); test: co-IP; transfected HEK-293 MSR cells lysed in PBS with 0.5% digitonin; precipitated with anti-SERT (C-20 or N_SERT) or control IgG, protein G-agarose; immunoblotting
[2] = target: GST fusion protein of full-length SNAP25 (synaptosome-associated protein of 25 kDa) (rat) (UniProt P60881); test: pull-down; 20 ug GST or GST fusion protein immobilised on glutathione beads, incubated with 500 ug total protein from SERT-transfected HEK-293 MSR cells in 5 mM CHAPS, 50 mM Tris-HCl pH 7.4, 150 mM NaCl; SERT detected by immunoblotting; only the target purified
[3] = target: GST fusion protein of full-length VAMP2 (vesicle-associated membrane protein 2) (rat) (UniProt P63045); test: as above
[4] = target: serotonin transporter (SERT), rat, in pcDNA3 (rat) (UniProt P31652); test: co-IP; as a2 but lysis in 5 mM CHAPS; data not shown
[5] = target: serotonin transporter (SERT), endogenous in rat hippocampal crude synaptosomes (rat (endogenous in hippocampal synaptosomes)) (UniProt P31652); test: co-IP; rat hippocampal crude synaptosomes in PBS with 0.2% digitonin; precipitated with rabbit anti-N_SERT or control non-immune serum, 2 h at 4 C, protein G-agarose; VAMP2 detected by immunoblotting

binding [2]: no binding
binding [3]: binds
Substance: serotonin transporter (SERT), rat, in pcDNA3 (from UniProt P31652 1-630)

binding [1]: binds
Substance: HA-VAMP3 (cellubrevin) (from UniProt P63025 1-103)

Further lines, the substance ahead of its results:

Substance: HA-VAMP1 (from UniProt Q63666 1-118)
binding [1]: binds

Substance: vesicle-associated membrane protein 2 (VAMP2), in pcDNA3 (from UniProt P63045 1-116)
binding [4]: binds
binding [1]: binds

Substance: vesicle-associated membrane protein 2 (VAMP2), endogenous in rat hippocampal crude synaptosomes (from UniProt P63045 1-116)
binding [5]: binds
